Reference: paper PMC5102403
No constants are given. Whether binding was seen depends on the method and setting. Binding seen in cells or lysates may run through a third protein. Some entries that bind do so weakly or less than the wild type.

Sequences of proteins named here, by UniProt entry; tags and fusion partners are left off.
UniProt Q61457: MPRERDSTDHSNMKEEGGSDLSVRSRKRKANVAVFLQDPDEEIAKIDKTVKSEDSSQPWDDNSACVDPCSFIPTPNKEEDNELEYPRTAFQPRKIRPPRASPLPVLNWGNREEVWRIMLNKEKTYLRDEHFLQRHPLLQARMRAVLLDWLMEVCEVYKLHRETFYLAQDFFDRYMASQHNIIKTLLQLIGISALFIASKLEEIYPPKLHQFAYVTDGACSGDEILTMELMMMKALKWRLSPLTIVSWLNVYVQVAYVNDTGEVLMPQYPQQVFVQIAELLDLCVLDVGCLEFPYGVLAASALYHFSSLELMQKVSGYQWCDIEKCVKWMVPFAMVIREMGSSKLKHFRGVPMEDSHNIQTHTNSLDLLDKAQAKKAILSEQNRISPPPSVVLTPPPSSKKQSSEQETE
UniProt P25322: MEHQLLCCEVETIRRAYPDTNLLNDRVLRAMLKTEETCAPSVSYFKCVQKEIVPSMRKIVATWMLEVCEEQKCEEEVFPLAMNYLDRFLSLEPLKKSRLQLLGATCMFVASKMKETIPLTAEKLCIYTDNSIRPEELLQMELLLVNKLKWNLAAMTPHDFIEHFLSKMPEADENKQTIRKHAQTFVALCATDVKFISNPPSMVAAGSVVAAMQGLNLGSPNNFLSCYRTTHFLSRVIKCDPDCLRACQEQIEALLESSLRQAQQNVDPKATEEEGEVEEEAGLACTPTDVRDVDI

Key:
[1] = biological target: tagged (Flag-HA) cyclin E1 of knock-in mice, end of the tag not told for the experiment or an about 1:1 mixture of the N- and C-terminally tagged forms (mouse) (UniProt Q61457); assay: co-IP; anti-Flag immunoprecipitation of cyclin E1 from spleens of tagged knock-in mice, immunoblot with the indicated antibodies
[2] = biological target: cyclin D1, mouse (mouse (endogenous in spleen)) (UniProt P25322); assay: co-IP; cyclins D1, A2 or B1 immunoprecipitated from lysates of wild-type or Cdk2-/- spleens, immunoblot
[3] = biological target: N-terminally Flag- and HA-tagged cyclin E1 (cyclin E1^Ntag knock-in allele) (mouse) (UniProt Q61457); assay: co-IP; anti-Flag immunoprecipitation from spleens and thymuses of Cdk2+/+/cyclin E1 Ntag/Ntag (KI) and Cdk2-/-/cyclin E1 Ntag/Ntag mice, wild-type mice as control, immunoblot
[4] = biological target: tagged (Flag-HA) cyclin E1 of knock-in mice, end of the tag not told for the experiment or an about 1:1 mixture of the N- and C-terminally tagged forms (mouse) (UniProt Q61457); assay: co-IP; anti-Flag immunoprecipitation from spleens of KI mice, elution with Flag peptides, re-immunoprecipitation with anti-p130 antibody or IgG, immunoblot

B1: Cdc7, mouse (enzyme, UniProt Q9Z0H0 1-564)
chain: MEEPMAFSSLRGSDRCPADDSLKKYEQSVKLSGIKRDIEELCEAVPQLVNVFKIKDKIGEGTFSSVYLATAQLQEGHEEKIALKHLIPTSHPMRIAAELQCLTVAGGQDNVMGLKYCFRKNDHVVIAMPYLEHESFLDILNSLSFQEVREYMYNLFVALKRIHQFGIVHRDVKPSNFLYNRRLKKYALVDFGLAQGTRDTKIELLKFVQSEAQQEDCSRNKYHGVVGHKGLLSRPAPKTVDQQCTPKTSVKRSYTQVHIKQGKDGKERSVGLSVQRSVFGERNFNIHSSISHESPAEKLIKQSKTVDIISRKLATKKTAISTKAMNSVMRETARSCPAVLTCDCYGSDRVCSVCLSRRQQVAPRAGTPGFRAPEVLTKCPDQTTAIDMWSAGVIFLSLLSGRYPFYKASDDLTALAQIMTIRGSRETIQAAKAFGKSVLCSKEVPAQDLRALCERLRGLDSTTPRSASGPPGNASYDPAASKNTDHKASRVQAAQAQHSEDSLYKRDNDGYWSHPKDCTSNSEGWDSVPDEAYDLLDKLLDLNPASRITAEAALLHAFFKDMCS
- binding [1]: binds

B2: Cdk4, mouse (enzyme, UniProt P30285 1-303)
chain: MAATRYEPVAEIGVGAYGTVYKARDPHSGHFVALKSVRVPNGGAAGGGLPVSTVREVALLRRLEAFEHPNVVRLMDVCATSRTDRDIKVTLVFEHIDQDLRTYLDKAPPPGLPVETIKDLMRQFLSGLDFLHANCIVHRDLKPENILVTSNGTVKLADFGLARIYSYQMALTPVVVTLWYRAPEVLLQSTYATPVDMWSVGCIFAEMFRRKPLFCGNSEADQLGKIFDLIGLPPEDDWPREVSLPRGAFAPRGPRPVQSVVPEMEESGAQLLLEMLTFNPHKRISAFRALQHSYLHKEESDAE
- binding [2]: binds
- binding [3]: binds

B3: p130, mouse (protein, UniProt Q64700 1-1135)
chain: MASGGNQSPPPPPAAAASSEEEEEDGDAADRAQPAGSPSHQIQQRFEELCSRLNMDEAARAEAWSSYRSMSESYTLEGNDLHWLACALYVACRKSVPTVSKGTAEGNYVSLTRILRCSEQSLIEFFNKMKKWEDMANLPPHFRERTERLERNFTVSAVIFKKYEPIFQDIFKYPQEEQPRQQRGRKQRRQPCTTSEIFHFCWVLFIYAKGNFPMISDDLVNSYHLLLCALDLVYGNALQCSNRKELVNPNFKGLSEDCHPKDSKASSDPPCVIEKLCSLHDGLVLEAKGIKEHFWKPYIRKLFEKKLLKGKEENLTGFLEPGNFGESFKAVNKAYEEYVLAAGNLDERVFLGEDAEEEVGTLSRCLSAASGTESAERTQMRDILQQHLDKSKALRVCTPLTGVRYVQENSPCVTPVSTAAHSLSRLHTMLSGLRNAPSEKLERILRSCSRDPTQAIADRLKEMYEIYSQHFQPDENFSNCAKEIANKHFRFAEMLYYKVLESVIEQEQKRLGDMDLSGVLEHDAFHRSLLACCLEVVAFSHKPPGNFPFIAEIFDVPHYHFYKVIEVFIRAEDGLCREVVKHLNQIEEQILDHLAWKTKSPLWDRIRDNENRVPTCEEVMPPQNLERTDEIYIAGSPLTPRRVGEVRADAGGLGRSITSPTTLYDRYSSPTVSTTRRRLFENDSPSEGSTSGRIPPQPLVNAVPVQNVPGETVSVTPVPGQTLVTMATATVTANNGQTVTIPVQGIANENGGITFFPVQVNVGGQAQAVAGSIQPLSAQALAGSLSSQQVTGTTLQVPGPVAIQQISPGGQQQNPGQPLTSSSIRPRKTSSLALFFRKVYYLAGVRLRDLCIKLDISDELRKKIWTCFEFSIIQCTELMMDRHLDQLLMCAIYVMAKVTKEDRSFQNIMRCYRTQPQARSQVYRSVLIKGKRRNSGSSESRSHQNSPTELNTDRASRDSSPVMRSNSTLPVPQPSSAPPTPTRLTGASSDVEEEERGDLIQFYNNIYRKQIQAFAMKYSQANAQTDTPPLSPYPFVRTGSPRRVQLSQSHPIYISPHNNEAMPSPREKIFYYFSNSPSKRLREINSMIRTGETPTKKRGILLDDGSESPAKRICPENHSALLRRLQDVANDRGSQ
- binding [4]: binds
